The record followed here is patent publication US11866460B2 (priority 2015, dated 2024).

The test system of one assay is Escherichia coli ΔacrAB. As to the kind of experiment: microbe, parasite or virus in culture. Type of assay: cell-based.
For a further assay, the system named is Escherichia coli. Description: microbe, parasite or virus in culture. The assay is classed as cell-based.
The test system of assay [1] is Streptococcus pneumoniae (PSSP). As to the kind of experiment: microbe, parasite or virus in culture.
The test system of assay [2] is Streptococcus pneumoniae (PRSP). Description: microbe, parasite or virus in culture.
The subject of assay [3] is Staphylococcus aureus (MSSA). As to the kind of experiment: microbe, parasite or virus in culture.
Assay [4] concerns Staphylococcus aureus (MRSA). Description: microbe, parasite or virus in culture. The assay is classed as cell-based.
In assay [5] the test system is Bacillus anthracis Sterne. As to the kind of experiment: microbe, parasite or virus in culture.
In the next assay the test system is Streptococcus salivarius. As to the kind of experiment: microbe, parasite or virus in culture.
For assay [6], the system named is Enterococcus faecalis (VSE). Description: microbe, parasite or virus in culture.
Another assay has as its system Streptococcus agalactiae. As to the kind of experiment: microbe, parasite or virus in culture.
In a further assay the test system is Moraxella catarrhalis. Description: microbe, parasite or virus in culture. Type of assay: cell-based.
The test system of assay [7] is Enterococcus faecalis (VRE). Description: organism not typed.
Assay [8] has as its system Enterococcus faecium (VRE). Description: organism not typed.
For another assay, the system named is Pseudomonas aeruginosa. Description: microbe, parasite or virus in culture. Type of assay: cell-based.
The subject of a further assay is Klebsiella pneumoniae. As to the kind of experiment: microbe, parasite or virus in culture. The assay is classed as cell-based.
In the next assay the test system is Streptococcus pyogenes. Description: microbe, parasite or virus in culture.
The subject of a further assay is Mycobacterium smegmatis. Description: microbe, parasite or virus in culture. Type of assay: cell-based. The settings on record: Mycolicibacterium smegmatis, 48 h.

In brackets after ≈: the same amount, converted by molar mass.

With `CCC[C@@H]1C[C@@H](C(=O)N[C@@H]([C@H]2O[C@H](SC)[C@H](O)[C@@H](O)[C@H]2O)[C@H](C)Cl)N(C)C1` [Clindamycin], the MIC was 4 µg/mL (≈ 9.41 µM) against Escherichia coli ΔacrAB; above 64 µg/mL in the assay on Escherichia coli; at most 0.06 µg/mL in assay [1]; above 64 µg/mL in [2]; 0.12 µg/mL (≈ 0.282 µM) in assay [3]; at most 0.06 µg/mL in assay [4]. In addition, the MIC in assay [5] was 0.25 µg/mL (≈ 0.588 µM); in the assay on Streptococcus salivarius, at most 0.06 µg/mL; in [6] it was 16 µg/mL (≈ 37.6 µM); with Streptococcus agalactiae, at most 0.06 µg/mL; against Moraxella catarrhalis, 1 µg/mL (≈ 2.35 µM); in assay [7] it was above 64 µg/mL. In addition, the MIC is above 64 µg/mL in assay [8]; above 64 µg/mL against Pseudomonas aeruginosa; above 64 µg/mL against Klebsiella pneumoniae; at most 0.06 µg/mL in the assay with Streptococcus pyogenes; 16 µg/mL (≈ 37.6 µM) with Mycobacterium smegmatis.
